Test results as given in the supplement of paper PMC10060354, “Discovery of a small molecule ligand of FRS2 that inhibits invasion and tumor growth” (Cellular Oncology, 2022).

Amino acid sequences for entries named in this document (tags omitted). A change or cut given only in a name is not applied to a line headed by its entry.
UniProt O60234, whole entry: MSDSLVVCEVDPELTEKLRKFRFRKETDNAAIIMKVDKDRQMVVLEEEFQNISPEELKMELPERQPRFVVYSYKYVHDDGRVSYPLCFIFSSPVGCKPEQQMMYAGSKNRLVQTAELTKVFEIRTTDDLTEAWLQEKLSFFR
UniProt Q8NBI5: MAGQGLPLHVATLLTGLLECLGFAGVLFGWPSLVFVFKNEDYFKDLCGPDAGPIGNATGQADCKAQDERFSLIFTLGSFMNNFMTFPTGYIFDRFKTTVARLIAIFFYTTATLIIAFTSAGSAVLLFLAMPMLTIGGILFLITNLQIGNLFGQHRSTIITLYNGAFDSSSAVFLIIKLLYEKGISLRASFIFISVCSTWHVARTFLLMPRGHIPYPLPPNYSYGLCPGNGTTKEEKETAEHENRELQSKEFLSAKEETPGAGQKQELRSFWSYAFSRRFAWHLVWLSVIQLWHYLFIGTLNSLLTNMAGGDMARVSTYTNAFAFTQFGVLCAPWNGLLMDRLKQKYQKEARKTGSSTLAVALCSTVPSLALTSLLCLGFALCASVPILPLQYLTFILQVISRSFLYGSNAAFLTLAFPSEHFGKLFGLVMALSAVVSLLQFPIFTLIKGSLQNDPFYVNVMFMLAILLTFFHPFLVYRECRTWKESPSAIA
UniProt Q86XE0: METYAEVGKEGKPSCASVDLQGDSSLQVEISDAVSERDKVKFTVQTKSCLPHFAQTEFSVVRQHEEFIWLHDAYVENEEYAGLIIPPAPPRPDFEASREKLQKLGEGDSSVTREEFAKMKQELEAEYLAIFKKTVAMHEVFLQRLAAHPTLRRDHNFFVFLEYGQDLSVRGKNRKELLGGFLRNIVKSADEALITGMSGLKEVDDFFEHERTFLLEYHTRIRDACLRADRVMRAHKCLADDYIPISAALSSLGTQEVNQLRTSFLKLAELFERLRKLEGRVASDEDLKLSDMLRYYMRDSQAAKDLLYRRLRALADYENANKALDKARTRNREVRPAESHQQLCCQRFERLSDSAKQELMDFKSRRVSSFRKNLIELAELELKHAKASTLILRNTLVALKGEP
UniProt Q8IWZ8: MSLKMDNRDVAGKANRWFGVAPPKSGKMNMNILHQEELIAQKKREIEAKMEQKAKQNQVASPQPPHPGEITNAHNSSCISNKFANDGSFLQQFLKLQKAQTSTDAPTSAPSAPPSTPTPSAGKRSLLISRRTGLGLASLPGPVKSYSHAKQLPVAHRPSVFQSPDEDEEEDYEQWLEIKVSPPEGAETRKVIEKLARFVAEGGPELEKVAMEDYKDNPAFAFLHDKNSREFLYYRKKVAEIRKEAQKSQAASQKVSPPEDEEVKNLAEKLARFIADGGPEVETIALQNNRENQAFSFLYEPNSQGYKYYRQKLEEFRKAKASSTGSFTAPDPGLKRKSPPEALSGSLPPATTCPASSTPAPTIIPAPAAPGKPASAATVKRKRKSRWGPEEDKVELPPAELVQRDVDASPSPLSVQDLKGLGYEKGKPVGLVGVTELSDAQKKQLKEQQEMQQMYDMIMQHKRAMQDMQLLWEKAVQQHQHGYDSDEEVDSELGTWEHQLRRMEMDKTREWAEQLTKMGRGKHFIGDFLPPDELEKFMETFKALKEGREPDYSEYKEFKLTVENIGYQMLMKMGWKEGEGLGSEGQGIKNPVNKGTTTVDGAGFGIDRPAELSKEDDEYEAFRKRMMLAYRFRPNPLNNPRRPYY
UniProt O14653: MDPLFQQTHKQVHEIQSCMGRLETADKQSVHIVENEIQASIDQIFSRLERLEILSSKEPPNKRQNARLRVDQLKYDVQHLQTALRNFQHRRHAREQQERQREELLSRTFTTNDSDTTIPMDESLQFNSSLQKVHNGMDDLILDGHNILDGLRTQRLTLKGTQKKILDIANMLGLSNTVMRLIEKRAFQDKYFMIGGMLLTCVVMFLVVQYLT
UniProt O15446, whole entry: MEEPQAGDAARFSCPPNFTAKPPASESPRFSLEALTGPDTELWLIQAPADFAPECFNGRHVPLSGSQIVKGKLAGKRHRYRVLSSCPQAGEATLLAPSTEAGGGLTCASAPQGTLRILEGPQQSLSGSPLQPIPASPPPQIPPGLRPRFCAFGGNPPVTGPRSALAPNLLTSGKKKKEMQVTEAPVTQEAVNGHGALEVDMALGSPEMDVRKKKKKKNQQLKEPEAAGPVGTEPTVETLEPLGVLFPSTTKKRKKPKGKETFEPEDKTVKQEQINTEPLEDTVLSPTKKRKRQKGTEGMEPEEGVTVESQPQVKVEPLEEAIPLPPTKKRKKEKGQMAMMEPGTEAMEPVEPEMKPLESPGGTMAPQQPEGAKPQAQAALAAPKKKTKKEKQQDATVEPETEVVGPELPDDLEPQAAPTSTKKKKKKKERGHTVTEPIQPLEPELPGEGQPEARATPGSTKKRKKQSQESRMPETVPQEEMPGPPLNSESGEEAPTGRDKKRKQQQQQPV
UniProt Q04727: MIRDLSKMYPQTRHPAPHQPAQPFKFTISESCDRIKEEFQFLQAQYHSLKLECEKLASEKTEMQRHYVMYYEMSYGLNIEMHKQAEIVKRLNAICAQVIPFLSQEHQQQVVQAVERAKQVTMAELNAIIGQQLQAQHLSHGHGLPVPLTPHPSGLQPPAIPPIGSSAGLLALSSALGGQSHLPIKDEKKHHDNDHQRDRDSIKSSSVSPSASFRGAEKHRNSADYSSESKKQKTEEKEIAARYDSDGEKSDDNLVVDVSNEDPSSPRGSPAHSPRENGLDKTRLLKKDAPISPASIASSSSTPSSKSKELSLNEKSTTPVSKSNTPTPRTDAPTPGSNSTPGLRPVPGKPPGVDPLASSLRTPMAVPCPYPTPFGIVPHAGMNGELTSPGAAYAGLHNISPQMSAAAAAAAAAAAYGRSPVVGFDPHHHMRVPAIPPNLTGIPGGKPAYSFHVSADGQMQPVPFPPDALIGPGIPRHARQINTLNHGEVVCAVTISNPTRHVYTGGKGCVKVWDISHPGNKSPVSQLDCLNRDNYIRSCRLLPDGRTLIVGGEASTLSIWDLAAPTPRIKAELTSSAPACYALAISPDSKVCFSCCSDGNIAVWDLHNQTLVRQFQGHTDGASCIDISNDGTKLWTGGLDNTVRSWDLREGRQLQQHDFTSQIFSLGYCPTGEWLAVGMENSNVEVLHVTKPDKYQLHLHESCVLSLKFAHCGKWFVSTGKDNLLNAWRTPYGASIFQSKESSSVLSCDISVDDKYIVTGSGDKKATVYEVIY
UniProt Q00653: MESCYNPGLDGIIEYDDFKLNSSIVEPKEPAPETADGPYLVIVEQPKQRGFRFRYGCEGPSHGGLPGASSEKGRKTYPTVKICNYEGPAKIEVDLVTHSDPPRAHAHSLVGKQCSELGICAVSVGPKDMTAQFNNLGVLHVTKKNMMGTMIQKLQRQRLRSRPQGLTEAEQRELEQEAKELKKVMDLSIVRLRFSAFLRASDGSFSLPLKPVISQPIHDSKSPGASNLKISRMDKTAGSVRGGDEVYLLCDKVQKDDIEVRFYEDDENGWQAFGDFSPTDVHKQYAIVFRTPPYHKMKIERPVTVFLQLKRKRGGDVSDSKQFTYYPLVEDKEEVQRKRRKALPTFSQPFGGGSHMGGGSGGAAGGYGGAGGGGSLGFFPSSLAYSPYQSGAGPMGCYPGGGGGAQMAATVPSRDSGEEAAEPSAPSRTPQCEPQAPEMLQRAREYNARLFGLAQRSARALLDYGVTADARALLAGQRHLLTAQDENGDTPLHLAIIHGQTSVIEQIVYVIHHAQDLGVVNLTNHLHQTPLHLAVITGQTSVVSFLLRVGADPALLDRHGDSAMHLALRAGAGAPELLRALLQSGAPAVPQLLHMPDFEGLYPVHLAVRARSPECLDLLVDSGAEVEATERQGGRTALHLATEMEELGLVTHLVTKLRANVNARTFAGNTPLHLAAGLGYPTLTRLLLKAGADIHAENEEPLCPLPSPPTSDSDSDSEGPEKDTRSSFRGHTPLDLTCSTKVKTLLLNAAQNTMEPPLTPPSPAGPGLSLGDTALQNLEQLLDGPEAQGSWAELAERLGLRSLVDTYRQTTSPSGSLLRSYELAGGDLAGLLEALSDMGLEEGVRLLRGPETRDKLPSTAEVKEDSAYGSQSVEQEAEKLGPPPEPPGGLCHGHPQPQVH
UniProt Q9HD34: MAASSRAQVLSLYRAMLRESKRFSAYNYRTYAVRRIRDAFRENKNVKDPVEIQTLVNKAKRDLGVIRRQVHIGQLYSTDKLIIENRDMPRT
UniProt Q9UK53: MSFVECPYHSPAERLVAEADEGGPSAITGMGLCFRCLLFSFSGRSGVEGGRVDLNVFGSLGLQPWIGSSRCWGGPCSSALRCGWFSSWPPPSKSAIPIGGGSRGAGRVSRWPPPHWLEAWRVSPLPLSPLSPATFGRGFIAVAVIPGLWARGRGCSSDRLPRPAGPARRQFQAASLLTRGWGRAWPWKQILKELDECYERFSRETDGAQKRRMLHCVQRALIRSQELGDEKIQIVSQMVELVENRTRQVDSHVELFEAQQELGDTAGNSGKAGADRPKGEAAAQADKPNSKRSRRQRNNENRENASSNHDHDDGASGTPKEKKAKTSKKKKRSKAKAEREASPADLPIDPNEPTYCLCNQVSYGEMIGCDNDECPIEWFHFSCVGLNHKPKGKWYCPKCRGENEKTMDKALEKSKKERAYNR
UniProt O95197: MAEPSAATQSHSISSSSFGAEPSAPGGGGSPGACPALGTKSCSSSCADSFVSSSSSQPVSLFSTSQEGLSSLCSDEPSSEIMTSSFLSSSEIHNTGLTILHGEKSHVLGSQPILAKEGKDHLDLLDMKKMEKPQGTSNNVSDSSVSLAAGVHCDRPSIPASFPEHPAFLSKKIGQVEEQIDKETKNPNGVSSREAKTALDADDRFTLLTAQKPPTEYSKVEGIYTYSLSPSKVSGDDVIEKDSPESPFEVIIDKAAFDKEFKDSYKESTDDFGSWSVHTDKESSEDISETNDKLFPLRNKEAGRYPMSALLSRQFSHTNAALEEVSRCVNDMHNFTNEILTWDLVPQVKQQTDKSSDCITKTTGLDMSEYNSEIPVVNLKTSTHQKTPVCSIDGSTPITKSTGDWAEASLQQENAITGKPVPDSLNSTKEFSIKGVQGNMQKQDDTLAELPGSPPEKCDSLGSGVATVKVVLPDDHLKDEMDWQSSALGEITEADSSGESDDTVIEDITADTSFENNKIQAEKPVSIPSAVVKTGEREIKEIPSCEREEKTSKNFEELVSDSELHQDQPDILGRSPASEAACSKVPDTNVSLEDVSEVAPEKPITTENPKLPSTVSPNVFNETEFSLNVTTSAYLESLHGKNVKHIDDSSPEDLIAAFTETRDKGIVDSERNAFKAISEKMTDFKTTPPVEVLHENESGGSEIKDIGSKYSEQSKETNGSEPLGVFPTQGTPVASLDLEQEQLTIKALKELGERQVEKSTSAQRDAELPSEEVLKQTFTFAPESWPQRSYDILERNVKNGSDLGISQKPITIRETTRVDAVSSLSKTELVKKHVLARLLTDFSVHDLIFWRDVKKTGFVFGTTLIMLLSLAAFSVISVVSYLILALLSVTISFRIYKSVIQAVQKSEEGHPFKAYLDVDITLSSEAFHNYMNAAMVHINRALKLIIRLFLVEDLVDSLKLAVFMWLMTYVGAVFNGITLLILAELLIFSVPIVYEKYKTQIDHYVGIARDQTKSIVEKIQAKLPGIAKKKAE
UniProt Q9ULC3: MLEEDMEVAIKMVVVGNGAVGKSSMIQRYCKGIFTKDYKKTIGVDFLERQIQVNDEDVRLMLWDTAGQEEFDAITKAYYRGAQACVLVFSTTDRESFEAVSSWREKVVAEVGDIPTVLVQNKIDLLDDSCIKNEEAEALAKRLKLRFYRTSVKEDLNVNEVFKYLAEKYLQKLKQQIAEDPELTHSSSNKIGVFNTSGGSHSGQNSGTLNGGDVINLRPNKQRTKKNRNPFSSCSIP
UniProt O60568: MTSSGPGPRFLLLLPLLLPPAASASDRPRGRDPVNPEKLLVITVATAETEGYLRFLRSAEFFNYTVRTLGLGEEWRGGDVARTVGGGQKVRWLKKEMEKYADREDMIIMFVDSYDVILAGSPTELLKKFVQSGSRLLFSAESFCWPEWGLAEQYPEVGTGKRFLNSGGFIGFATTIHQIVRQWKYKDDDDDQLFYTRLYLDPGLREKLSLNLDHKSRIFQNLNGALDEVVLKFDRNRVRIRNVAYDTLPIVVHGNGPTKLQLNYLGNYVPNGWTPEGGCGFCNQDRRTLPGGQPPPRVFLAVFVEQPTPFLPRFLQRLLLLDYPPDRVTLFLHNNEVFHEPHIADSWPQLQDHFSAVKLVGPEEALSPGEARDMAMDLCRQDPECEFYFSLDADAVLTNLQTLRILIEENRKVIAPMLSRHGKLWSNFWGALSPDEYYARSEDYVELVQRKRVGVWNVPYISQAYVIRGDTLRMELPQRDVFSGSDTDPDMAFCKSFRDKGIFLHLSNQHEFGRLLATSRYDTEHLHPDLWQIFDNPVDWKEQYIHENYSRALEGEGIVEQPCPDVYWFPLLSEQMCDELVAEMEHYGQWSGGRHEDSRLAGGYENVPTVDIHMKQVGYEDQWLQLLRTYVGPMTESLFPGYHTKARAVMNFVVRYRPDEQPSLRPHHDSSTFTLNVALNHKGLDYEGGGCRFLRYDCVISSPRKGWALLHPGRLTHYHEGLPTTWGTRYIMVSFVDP

Compound: [O-][N+](C(C1=C(C(O)=C2)NC(C(C=C3)=CC=C3Cl)C4C1C=CC4)=C2Cl)=O
Assay: melting temperature shift (compound 7 minus DMSO); higher = compound stabilises the protein
Details: 10 µM
Experimental: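 Thermal proteome profiling (TMT mass spectrometry) in intact DAOY medulloblastoma cells or DAOY lysates treated with 10 µM compound 7 or DMSO, heated at 10 temperatures from 40.5 to 73.8 °C for 3 min. Melting curves were fitted with the Bioconductor TPP package, and the melting point difference between compound and vehicle is reported per protein (single curve per condition).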

[1] = system: DAOY cell lysate, treatment time: 20 min, 4 °C
[2] = system: intact DAOY cells, treatment time: 90 min, 37 °C

Target	melting temperature shift [1] [°C]	melting temperature shift [2] [°C]
LIN54 (UniProt Q6MZP7)	-3.97	
PHAX (UniProt Q9H814)	-0.4	-1.28
MLH1 (UniProt P40692)	-1.96	1.79
GK (UniProt P32189)	-0.735	-0.728
UniProt O60234		-5.79
ERI1 (UniProt Q8IV48)	-0.382	-0.717
NOP2 (UniProt P46087)	1.17	1.54
SLC43A3 (UniProt Q8NBI5)	1.48	-1.97
DHRS7B (UniProt Q6IAN0)	1.01	0.0274
MGAT1 (UniProt P26572)	1.97	
TSC22D4 (UniProt Q9Y3Q8)	5.65	-0.998
UniProt Q8IX05	0.987	
CHAF1A (UniProt Q13111)	0.732	-0.129
AIF1L (UniProt Q9BQI0)	4.39	1.55
SHMT1 (UniProt P34896)	-0.976	-0.403
UniProt Q86XE0		-2.79
UniProt Q9BV36	0.549	
UniProt O75132	2.14	
LGALS3 (UniProt P17931)	-0.528	-0.165
UniProt Q99958	0.235	-1.33

Target	melting temperature shift [1] [°C]	melting temperature shift [2] [°C]
RPL37A (UniProt P61513)	0.609	-0.0987
ADD3 (UniProt Q9UEY8)	-0.827	0.533
SUGP1 (UniProt Q8IWZ8)	0.443	-1.18
ACSS2 (UniProt Q9NR19)	0.512	0.536
UniProt O14653	-1.25	-0.628
CCDC97 (UniProt Q96F63)	-2.77	-1.34
CD3EAP (UniProt O15446)	1.63	
ILKAP (UniProt Q9H0C8)	-0.786	-0.0824
UniProt Q9H1B4	-0.954	
TLE4 (UniProt Q04727)	-0.0238	-1.97
SAP130 (UniProt Q9H0E3)	-0.373	-1.34
NFKB2 (UniProt Q00653)	0.32	0.498
KIRREL (UniProt Q96J84)	0.238	
SART3 (UniProt Q15020)	-0.318	0.114
UniProt Q9BRQ0	1.79	
SLC9A1 (UniProt P19634)	-0.599	
PARS2 (UniProt Q7L3T8)	-0.733	-0.217
TMOD1 (UniProt P28289)		-0.336
FHOD1 (UniProt Q9Y613)	-0.797	-0.355
LYRM4 (UniProt Q9HD34)	0.823	0.231

2 records drawn at random from those above:
Target	melting temperature shift [1] [°C]	melting temperature shift [2] [°C]
LYRM4 (UniProt Q9HD34)	0.823	0.231
SLC9A1 (UniProt P19634)	-0.599	

Carrying on:

Target	melting temperature shift [1] [°C]	melting temperature shift [2] [°C]
UniProt P30613		-1.23
UniProt Q9H9Q4	0.585	
ABR (UniProt Q12979)	-0.94	-0.36
TRIM4 (UniProt Q9C037)		1.05
ING1 (UniProt Q9UK53)	0.569	1.97
XPO4 (UniProt Q9C0E2)	-0.612	-1.01
WARS (UniProt P23381)	-1.24	-0.0564
NCEH1 (UniProt Q6PIU2)	0.926	-1.43
KIF1C (UniProt O43896)		-1.6
PYGB (UniProt P11216)	-0.273	-0.0504
ATXN3 (UniProt P54252)	-0.463	
PARP4 (UniProt Q9UKK3)	-0.224	0.999
UniProt Q6STE5	-2.21	-0.665
UniProt O14933	-1.87	-1.19
RTN3 (UniProt O95197)	6.2	
BLVRB (UniProt P30043)	-1.09	0.0687
RAB23 (UniProt Q9ULC3)	-0.283	-0.564
PLOD3 (UniProt O60568)	1.17	0.532

Single values are uncertain, as repeats are few or missing.
